Source: PubChem BioAssay AID1159593 (NIAID, 2016)

- Test: 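Canonical TLR pathway genes needed for NF-kappaB activation by LPS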
- Cell system: RAW264.7 macrophages of mouse, with reporters for p65 (GFP) and the Tnf promoter (mCherry)
- Knock-down reagent: single siRNA against mouse genes
- Time to read-out: 48 to 72 hours after siRNA transfection, then LPS for 40 min
- Conditions: LPS (Salmonella minnesota R595) for 40 min before fixation; dose not given
- Detection: 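Imaged nuclear over cytoplasmic GFP-p65 intensity after 40 min LPS, normalised per plate by median and MAD, robust z-score versus negative controls, mean of replicates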
- Reading the numbers: p65 translocation z-score: higher = more nuclear NF-kappaB p65 after LPS
- Active means: 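Activity score grows with absolute z: 25 beyond 1, 50 beyond 1.5, 75 beyond 2, 100 beyond 2.5; active calls here sit at about z 1.5 or more either way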
- Meaning of the calls: active = changed p65 translocation (either direction); inactive = no clear change
The whole screen tested 756 reagents; below is an unselected part. Of all reagents, 137 (18%) got an active call. 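Active means p65 translocation went either up or down; genes were judged on the median of six siRNAs, not single siRNAs.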 Entries without a mark were called inactive. Reagents against one gene are numbered here. No sequences are given here. Not given: the amount of reagent.

| Gene | reagent no. | p65 translocation z-score |
| --- | --- | --- |
| Jun (GeneID 16476) | 1 | -0.392 |
| Jun (GeneID 16476) | 2 | -2.73 (active) |
| Jun (GeneID 16476) | 3 | -0.525 |
| Jun (GeneID 16476) | 4 | -2.04 (active) |
| Jun (GeneID 16476) | 5 | -1.75 (active) |
| Jun (GeneID 16476) | 6 | -0.199 |
| Ccl3 (GeneID 20302) | 1 | -1.83 (active) |
| Ccl3 (GeneID 20302) | 2 | -0.214 |
| Ccl3 (GeneID 20302) | 3 | -0.653 |
| Ccl3 (GeneID 20302) | 4 | 0.107 |
| Ccl3 (GeneID 20302) | 5 | -0.323 |
| Ccl3 (GeneID 20302) | 6 | 4.74 (active) |
| Elf4 (GeneID 56501) | 1 | 0.0659 |
| Elf4 (GeneID 56501) | 2 | -0.951 |
| Elf4 (GeneID 56501) | 3 | -1.19 |
| Elf4 (GeneID 56501) | 4 | -0.124 |
| Elf4 (GeneID 56501) | 5 | -1.07 |
| Elf4 (GeneID 56501) | 6 | 0.192 |

Next part, starting with the last 3 of the part before.
| Gene | reagent no. | p65 translocation z-score |
| --- | --- | --- |
| Elf4 (GeneID 56501) | 4 | -0.124 |
| Elf4 (GeneID 56501) | 5 | -1.07 |
| Elf4 (GeneID 56501) | 6 | 0.192 |
| Il12a (GeneID 16159) | 1 | -0.272 |
| Il12a (GeneID 16159) | 2 | -0.306 |
| Il12a (GeneID 16159) | 3 | -0.0342 |
| Il12a (GeneID 16159) | 4 | 0.0302 |
| Il12a (GeneID 16159) | 5 | -0.875 |
| Il12a (GeneID 16159) | 6 | 0.448 |
| Itgax (GeneID 16411) | 1 | -0.606 |
| Itgax (GeneID 16411) | 2 | -0.821 |
| Itgax (GeneID 16411) | 3 | -1.47 |
| Itgax (GeneID 16411) | 4 | -0.607 |
| Itgax (GeneID 16411) | 5 | -0.777 |
| Itgax (GeneID 16411) | 6 | -0.7 |
| Map3k7 (GeneID 26409) | 1 | 0.456 |
| Map3k7 (GeneID 26409) | 2 | 0.677 |
| Map3k7 (GeneID 26409) | 3 | -2.29 (active) |
| Map3k7 (GeneID 26409) | 4 | 0.0712 |
| Map3k7 (GeneID 26409) | 5 | 1.41 |
| Map3k7 (GeneID 26409) | 6 | 3.09 (active) |
| Tab3 (GeneID 66724) | 1 | -0.0907 |
| Tab3 (GeneID 66724) | 2 | 0.233 |
| Tab3 (GeneID 66724) | 3 | -0.944 |
| Tab3 (GeneID 66724) | 4 | 0.275 |
| Tab3 (GeneID 66724) | 5 | 1.63 (active) |
| Tab3 (GeneID 66724) | 6 | 1.13 |
| Mapk9 (GeneID 26420) | 1 | 0.122 |
| Mapk9 (GeneID 26420) | 2 | 0.0198 |
| Mapk9 (GeneID 26420) | 3 | -0.53 |
| Mapk9 (GeneID 26420) | 4 | 0.458 |
| Mapk9 (GeneID 26420) | 5 | -1.97 (active) |
| Mapk9 (GeneID 26420) | 6 | 0.00789 |
